Assay results: PubChem BioAssay AID652054 (National Center for Advancing Translational Sciences (NCATS), 2013)
The campaign covered roughly 360,000 compounds. About 9,100 (2.5%) were called active. This list was built around the results that the source calls inconclusive (neither active nor inactive); the mix of calls is not that of the screen. No stated cut-off is given here; in the data, active means max response below about -50%; inconclusive means no clear call, values can overlap the other calls; inactive means above that.

By UniProt entry, the sequences of proteins in these tests, tags left out.
UniProt P35462, whole entry, looked up: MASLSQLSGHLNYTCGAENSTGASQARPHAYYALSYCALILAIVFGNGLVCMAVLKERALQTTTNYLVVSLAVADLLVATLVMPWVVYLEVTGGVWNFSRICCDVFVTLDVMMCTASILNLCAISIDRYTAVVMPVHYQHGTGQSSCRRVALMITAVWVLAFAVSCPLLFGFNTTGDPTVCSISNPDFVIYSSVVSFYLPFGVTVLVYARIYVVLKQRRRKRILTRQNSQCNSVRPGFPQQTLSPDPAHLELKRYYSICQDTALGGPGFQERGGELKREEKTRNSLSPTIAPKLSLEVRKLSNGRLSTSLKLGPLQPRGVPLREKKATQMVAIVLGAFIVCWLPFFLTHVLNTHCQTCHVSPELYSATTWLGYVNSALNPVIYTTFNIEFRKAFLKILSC

molecular target: D(3) dopamine receptor (Homo sapiens) (UniProt P35462); assay: qHTS of D3 Dopamine Receptor Antagonist: qHTS; settings: D3R cells, DiscoveRx beta-arrestin luminescence, antagonist mode; active compounds read low
Procedure, shortened: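 Cells plated overnight at 1500 cells/well, then exposed to library compounds with dopamine controls for 90 minutes at 37 degrees C. DiscoveRx reagent added for 30–60 minutes at room temperature; luminescence read, quantitative HTS format.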
On the % scale 0 is the no-effect control and ±100 the full control effect.

Structure (SMILES) | max response, negative = inhibition
CCN1CCN(CCOCCOc2ccccc2)CC1 | inactive: -13.2%
COc1cccc(OC)c1OCCN1CCN(C(c2ccccc2)c2ccccc2)CC1 | active: -109%
CSc1ccccc1NC(=O)Nc1ccc(Cl)cc1 | inconclusive: -35.3%
CN(C)c1ccc(/C=C/c2nc3ccccc3s2)cc1 | inactive: -21.9%
O=C(O)C(=O)/C(=C\c1ccc([N+](=O)[O-])cc1)c1ccc2ccccc2n1 | inconclusive: -31.1%
COc1ccc(-c2nc3ccc(Br)cn3c2Cc2cccc(F)c2)cc1OC | inactive: 17.9%
O=C(CC1c2ccccc2C=C(c2ccsc2)N1c1ccc(-c2cccnc2)cc1)C1CC1 (stereo unspecified) | inconclusive: -48.8%
CC(C)CNC(=O)NC(=O)COc1c(F)c(F)cc(F)c1F | inconclusive: -40.7%
COc1ccccc1-c1nc(C(N)=O)c2[nH]c(=O)n(-c3cccc(C)c3)c2n1 | inconclusive: -39.9%
COc1cc2c(cc1OC)[C@H](Cc1ccc(O)cc1)NCC2 | active: -62.4%
CCOC(=O)N1CCC(NC(=O)CSCc2nc(-c3ccc(OC)c(OC)c3)oc2C)CC1 | inconclusive: -30.5%
Cc1c(Br)c([N+](=O)[O-])nn1CC(=O)N(C)Cc1ccccc1 | inactive: 3.26%
NC1(C#Cc2ccc3c(=O)c4ccccc4sc3c2)CCCCC1 | inactive: 0.146%
COc1ccc(C)cc1NC(=O)c1nnn(Cc2cccc(F)c2)c1N | inconclusive: -42%
O=C(c1ccccc1)N1CCC(CC2CC(c3cccc(Br)c3)=NO2)(C(=O)NCC2CCCCC2)CC1 (stereo unspecified) | inactive: -18.1%
c1ccc(CN2CCN(c3nc4ccccc4n4cnnc34)CC2)cc1 | active: -135%
COc1cccc(CC2(CO)CCCN(Cc3[nH]c4ccc(C)cc4c3C)C2)c1 (stereo unspecified) | inactive: -14.1%
CCOC(=O)c1cccc(NC(=O)c2cnc3ccccc3n2)c1 | inactive: 61.8%

Structure (SMILES) | max response, negative = inhibition
CCOC(=O)C1CCN(S(=O)(=O)c2ccc(Cl)s2)CC1 | inconclusive: -40%
COc1ccc2c(c1OC)C(=O)N(c1ccc(F)cc1)C2 | inconclusive: -33.2%
CCOc1cc(/C=C2\N=C(C)OC2=O)cc(Br)c1OCCc1ccccc1 | inconclusive: -45.7%
COC(=O)c1sccc1NC(=O)CSc1ccccc1NS(=O)(=O)c1ccc(Cl)cc1 | active: -59.3%
CCn1c(CNc2ccccc2Cl)nnc1SCCN1CCCCC1 | active: -59.7%
c1csc(Cc2nn3c(-c4n[nH]c5c4CCC5)nnc3s2)c1 | active: -61.5%
CCN1CCN(Cc2ccc(NC(=O)c3ccc(C)c(NC(=O)C[C@@H]4NC(=O)[C@H](Cc5ccccc5)NC4=O)c3)cc2C(F)(F)F)CC1 | inconclusive: -40.5%
COc1ccc(CN2CCN(C3CCSCC3)CC2CCO)c(C)c1C (stereo unspecified) | active: -64.3%
COc1ccc(OC)c(-c2cc(C(=O)Nc3c(C)n(C)n(-c4ccccc4)c3=O)no2)c1 | inconclusive: -41.6%
CCC(C(=O)OCC(=O)N1CCN(S(=O)(=O)c2ccc(C)cc2C)CC1)c1ccccc1 (stereo unspecified) | inactive: -18%
CCc1ccccc1-n1c(SCC(=O)N2CCCC2)nnc1-c1ccccn1 | inactive: 15.1%
CCOc1cc(/C=C2\SC(=S)N(C(C(=O)O)c3ccccc3)C2=O)ccc1O (stereo unspecified) | inconclusive: -35.7%
CCOC(=O)C1C(=O)C=C(/C=C/c2ccc(N(C)C)cc2)CC1c1ccccc1 (stereo unspecified) | inactive: -14.5%
Cc1ccc(CN2CCN(/N=C/c3ccc(C)s3)CC2)cc1 | inconclusive: -37%
CCN(CC)CCNC(=S)NC(=O)c1cn(-c2ccccc2)nc1-c1ccc(OC)cc1 | inconclusive: -48%
CCN1CCN(C(=S)c2ccc(Br)cc2)CC1 | active: -54.8%
O=S(=O)(c1ccccc1Oc1ccc(Cl)cc1Cl)N1CCCCC1 | inactive: -5.89%
COc1cccc(CN(C)CC(=O)NNC(=O)c2ccc(Cl)cc2)c1 | inconclusive: -33.1%
Cc1ccc(C)c(NC(=O)CCC(=O)N/N=C/c2cc([N+](=O)[O-])ccc2O)c1 | inconclusive: -48.7%

Structure (SMILES) | max response, negative = inhibition
COc1ccc(-c2nc(C)c(C(C)=O)n2O)cc1[N+](=O)[O-] | inconclusive: -36.6%
O=C(O)c1cc2cccc(S(=O)(=O)N3CCOCC3)c2cc1O | active: -53.8%
O=C1CCCC2=C1C(c1ccncc1)Nc1ccccc1N2 (stereo unspecified) | inactive: -15.9%
CC(C)(C(=O)N1CCC1(C)C(=O)NC1Cc2ccccc2C1)c1ccccc1 (stereo unspecified) | inconclusive: -49.4%
CC(Oc1ccccc1F)C(=O)NCCN1CCCCC1 (stereo unspecified) | inconclusive: -47.6%
Cc1nn(-c2ccccc2)c(OC(=O)c2cccs2)c1S(=O)(=O)c1ccc([N+](=O)[O-])cc1 | inconclusive: -34.4%
COC(=O)[C@@]12C[C@@H](CC(=O)N3CCN(C(=O)c4ccco4)CC3)C(=O)N(Cc3cccc4ccccc34)C1=CCC(C)(C)C2 | inconclusive: -30.8%
CC(C)CN(c1ccccc1)S(=O)(=O)c1nnc(NC(=O)C(C)C)s1 | inactive: 28.8%
Cc1sc2nc(C(C)C)nc(SCC(=O)N3CCN(C(=O)c4ccco4)CC3)c2c1C | inactive: 16.9%
N#Cc1cn(OCc2ccccc2)c(=O)[nH]c1=O | inconclusive: -33.7%
COCc1[nH]nc2c1C(c1cc(OC)c(O)c(OC)c1)C(C#N)=C(N)O2 (stereo unspecified) | inconclusive: -38.9%
O=c1ccc2cc([N+](=O)[O-])c(CCO)cc2o1 | active: -52.2%
CCC(C)(C)NC(=O)c1ccc2c(c1)N(CC(=O)NC1CCCC1)C(=O)C(C)(C)O2 | active: -62.5%
COc1ccc(F)cc1-c1cc(C(=O)NCc2ccc(C(F)(F)F)cc2)[nH]n1 | active: -73.2%
COc1cccc(C(=O)NC2CC3CCCC(C2)N3Cc2ccc(F)cc2)c1 (stereo unspecified) | active: -107%
CCn1c(=O)cc(SCC(=O)Nc2cccc(C)n2)c2ccccc21 | inactive: -5.92%
CCOC(=O)N1CCN(Cc2nc(Cc3cccc(C(F)(F)F)c3)no2)CC1 | active: -50.2%

Sorted by SMILES length (largest number first): part of the list above
Structure (SMILES) | max response, negative = inhibition
COCc1[nH]nc2c1C(c1cc(OC)c(O)c(OC)c1)C(C#N)=C(N)O2 (stereo unspecified) | inconclusive: -38.9%
COc1ccc(-c2nc(C)c(C(C)=O)n2O)cc1[N+](=O)[O-] | inconclusive: -36.6%
N#Cc1cn(OCc2ccccc2)c(=O)[nH]c1=O | inconclusive: -33.7%
CC(Oc1ccccc1F)C(=O)NCCN1CCCCC1 (stereo unspecified) | inconclusive: -47.6%
